Some of the results follow. Shown are side measurements of this screen, not its main read-out; they come without a call. Most of these compounds were active or inconclusive in the main read-out, so they are no random draw. Words in brackets tell the shape of the fitted curve; partial curves, single points and poor fits give uncertain potencies.
Assay: qHTS Assay to Find Inhibitors of Chronic Active B-Cell Receptor Signaling
Details: ABC-DLBCL IkBa-CBG/CBR reporter, luminescence ratio (green luciferase fused to IkBa over red control in TMD8 lymphoma cells), 4 h
In short: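 Cell line TMD8 (human ABC DLBCL), stably expressing tet-inducible CBG68-IkBa fusion and CBR; IMDM/0.5% FBS; cpd up to 46 uM; dox induction, 4 h, 37C/5% CO2; dual luminescence; green/red ratio; MG132 control.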

[1] = measured here: CBR red luminescence, cell number
[2] = measured here: IkBa-CBG green luminescence

SMILES	AC50 [1]	AC50 [2]
O=C1CCCC2=C1C1(CCCC1)N=C(Nc1nc3ccccc3s1)N2	15.8 µM [falling, single point]	
COC(=O)C1=C(C)N(c2cc(Cl)cc(Cl)c2)C(=O)C1	10 µM [falling, partial curve]	
Cc1sc(NC(=O)CSc2nnc(-c3ccccc3)o2)c(C#N)c1C	3.55 µM [rising, partial curve, poor fit]	
Cc1cc2ncn(/N=C/c3ccc4c(c3)OCO4)c2cc1C	5.62 µM [rising, single point]	
O=C(Nc1ccc(OC(F)(F)F)cc1)c1ccc2ccccc2n1	7.08 µM [rising, partial curve, poor fit]	
O=C(N/N=C/c1c[nH]c2ccc(Br)cc12)c1ccccn1	17.8 µM [falling, single point]	
NS(=O)(=O)c1ccc2nc(NC(=O)c3ccncc3)sc2c1	2 µM [falling, full curve]	
CCC(=O)OCCNc1cc(Sc2nccn2C)c2nonc2c1[N+](=O)[O-]		6.51 µM [falling, single point]
C=CCNc1cc(C(F)(F)F)nc(-c2ccccn2)n1	35.5 µM [falling, partial curve, poor fit]	
COc1cccc(-c2nnc3sc(-c4ccc(C)cc4)nn23)c1	12.6 µM [rising, partial curve, poor fit]	
Cc1ccc(C(=O)N2c3ccccc3N(Cc3ccccc3)C(=O)C2(C)C)cc1	0.708 µM [falling, full curve, poor fit]	
Cc1nc2nc(SCc3ccc(F)cc3Cl)nn2c(C)c1Cc1ccccc1	8.91 µM [rising, partial curve, poor fit]	
CSc1ccc(C(=O)C2CCCN(C(=O)c3nn(C)c(=O)c4ccccc34)C2)cc1 (stereo unspecified)	35.5 µM [rising, single point]	
COc1cccc(C(=O)NNC2=C(C(=O)C(F)(F)F)CCC2)c1	3.55 µM [falling, partial curve, poor fit]	
CCCCOc1ccc(C(=O)CCN2CCCCC2)cc1	25.9 µM [falling, partial curve, poor fit]	
COc1ccccc1-c1nnc(SCC(=O)NC2CCCCC2)o1	29.1 µM [falling, single point]	
NC(=O)C(=CNc1nc(-c2ccc(Cl)c(Cl)c2)cs1)C(N)=O	5.62 µM [falling, single point]	
COC(=O)C1=CN(c2ccc(F)cc2)C=C(C(=O)OC)C1c1ccc(O)cc1	6.31 µM [rising, single point]	
Cc1oc(CC(C)C)c(CN)c1C(=O)O	29.1 µM [rising, single point]	
CCCCN(C(=O)CSc1cc(C)c2ccc(OC)cc2n1)c1c(N)n(Cc2ccccc2)c(=O)[nH]c1=O	32.6 µM [falling, single point]	
CCCn1c(N)c(C(=O)CN2CCN(S(=O)(=O)c3cccc(Cl)c3)CC2)c(=O)[nH]c1=O	29.1 µM [falling, single point]	
C[C@@H]1C=C(C(=O)NCc2nc3ccccc3[nH]2)O[C@H](OCc2ccc(CO)cc2)C1	10 µM [falling, partial curve, poor fit]	

SMILES	AC50 [1]	AC50 [2]
COc1ccc(NC(=O)COc2ccc(CNCCCN3CCOCC3)cc2OC)cc1	25.1 µM [falling, single point]	
COCCNC(=O)Cc1c(C)c2cc3c(cc2oc1=O)OC(C)(C)CC3	3.98 µM [rising, single point]	
COc1cccc(NC(=O)CSc2nc3ncc(Br)cc3[nH]2)c1	10 µM [falling, partial curve]	
C=CCc1c(C)nc2cc(-c3ccccc3)[nH]n2c1=O	35.5 µM [falling, single point]	
CC(=O)c1ccc(Cc2cnc(N)s2)cc1	29.1 µM [rising, single point]	
CN(C)/C=N/c1c(C#N)cnn1-c1nc2ccccc2s1	6.31 µM [rising, partial curve, poor fit]	
COc1c(/C=C2\SC(=Nc3ccccc3Cl)NC2=O)cccc1[N+](=O)[O-]	11.2 µM [falling, partial curve, poor fit]	
Cc1nn(C)c(C)c1NS(=O)(=O)c1ccccc1	29.1 µM [rising, single point]	
CC(NC(c1ccccc1)c1ccccc1)C(=O)N1CCCc2ccccc21 (stereo unspecified)	23.1 µM [falling, partial curve, poor fit]	
Cc1nn2cc(-c3cccc(Cl)c3)cnc2c1Br	0.398 µM [rising, full curve, poor fit]	
O=C(CCc1nnc(C2(c3ccc(Cl)cc3)CCC2)o1)NC1CC1	0.112 µM [rising, full curve, poor fit]	
CCOC(=O)C1=C(COC(=O)/C=C/c2ccc(SC)cc2)NC(=O)NC1C (stereo unspecified)	0.082 µM [falling, partial curve, poor fit]	
COc1cc(OC)cc(C(=O)NCC(=O)OCC(=O)c2cc(OC)ccc2OC)c1	0.146 µM [rising, full curve, poor fit]	
c1ccn2cc(-c3ccc4c(c3)OCCO4)nc2c1	12.6 µM [falling, partial curve]	
Cc1ccc(-c2noc(CSc3nnc(-c4ccncc4)n3-c3ccc(F)cc3)n2)cc1	29.1 µM [rising, single point]	
Cc1[nH]c2ccccc2c1/C=N/Nc1ccccn1	14.1 µM [falling, single point]	
C=CCNC(=S)N/N=C/c1ccc(C)cc1C	14.1 µM [falling, partial curve, poor fit]	15.8 µM [falling, partial curve]
Nc1c(C(=O)c2cccs2)sc2nsc(SCCN3CCCCC3)c12	2.82 µM [falling, partial curve, poor fit]	
O=c1c(Cc2ccc(F)cc2)c(O)ccn1C1CCCCC1	1.3 µM [rising, partial curve]	
O=C(CCN1C(=O)S/C(=C\c2ccccc2)C1=O)Nc1ccc(S(=O)(=O)Nc2nccs2)cc1	14.1 µM [falling, single point]	
Nc1nonc1C(=O)N/N=C/c1cc(Br)ccc1O	4.47 µM [rising, single point]	
C=CCC[C@@H](Cc1ccc(F)cc1)C(=O)OC[C@@H](NC(=O)[C@@H](CC=C)CC(=O)N[C@H](CO)Cc1ccccc1)C(C)(C)C	14.6 µM [falling, partial curve]	

Ordered by formula weight (rising): 3 of the compounds above
SMILES	AC50 [1]	AC50 [2]
Cc1nn2cc(-c3cccc(Cl)c3)cnc2c1Br	0.398 µM [rising, full curve, poor fit]	
COc1c(/C=C2\SC(=Nc3ccccc3Cl)NC2=O)cccc1[N+](=O)[O-]	11.2 µM [falling, partial curve, poor fit]	
CSc1ccc(C(=O)C2CCCN(C(=O)c3nn(C)c(=O)c4ccccc34)C2)cc1 (stereo unspecified)	35.5 µM [rising, single point]	

The listing continues:

SMILES	AC50 [1]	AC50 [2]
CCOCCc1nn2c(=O)cc(CSCC(=O)Nc3ccc(OC)cc3)nc2s1	3.16 µM [rising, partial curve, poor fit]	
O=C(Nc1ccccc1CC[N+](=O)[O-])N1CCN(c2ccccc2)CC1	11.2 µM [falling, partial curve, poor fit]	
N/C(=N\OC(=O)COc1ccc(Cl)cc1Br)c1cccnc1	1.41 µM [rising, full curve, poor fit]	
COc1cc(C(=S)N2CCN(c3ccccc3Cl)CC2)cc(O)c1O	11.2 µM [falling, partial curve, poor fit]	
CCCOc1ccc(/C=C/C(=O)N2CCOCC2)cc1	1.58 µM [rising, full curve]	
COc1cc(OC)cc(C(=O)Nc2cc(C)on2)c1	22.4 µM [falling, single point]	
Cc1cccc(C(=O)OCC(=O)NCc2ccc3c(c2)OCO3)c1C	5.8 µM [falling, single point]	
CO/N=C/CC(=O)c1cnc(-c2ccccc2)s1	15.8 µM [rising, single point]	
O=C(CSCc1cccc(F)c1)N1CCN(c2ccccc2)CC1	1.46 µM [rising, full curve, poor fit]	
COC(=O)c1sc(NC(=O)c2oc3ccccc3c2C)nc1C	10.3 µM [falling, partial curve, poor fit]	
Cc1[nH][nH]c(=O)c1C(c1ccc(-c2ccc(Cl)c(Cl)c2)o1)c1c(C)[nH][nH]c1=O	23.1 µM [falling, single point]	
O=C(OCC(=O)N1CCCCC1)c1c[nH]c2ccccc12	9.2 µM [falling, partial curve]	
CCOC(=O)/C=C/C(=O)Nc1ccc(-c2nnc3n2CCCCC3)cc1	11.2 µM [falling, partial curve]	
CCC(=O)NC(Nc1cccc(C)n1)(C(F)(F)F)C(F)(F)F	29.1 µM [falling, single point]	
N#Cc1cnc(SCC(=O)NNC(=O)COc2cccc3ccccc23)nc1N	18.4 µM [rising, partial curve, poor fit]	
O=C(Nc1nnc(C2CC2)s1)C1COc2ccccc2O1 (stereo unspecified)	11.2 µM [falling, single point]	
Cc1cccc(-n2nnnc2SCC(=O)c2cc(C)n(Cc3ccco3)c2C)c1	35.5 µM [rising, single point]	
COc1ccc(N(C(C)C(=O)NC2CCCCCC2)S(C)(=O)=O)cc1 (stereo unspecified)	14.6 µM [falling, single point]	
Cc1ccc(C(OCCN(C)C)c2cccc(C(F)(F)F)c2)cc1 (stereo unspecified)	32.6 µM [falling, single point]	
O=C1NC(CCc2ccccc2)C(=O)N1CCOc1ccccc1 (stereo unspecified)	8.91 µM [rising, partial curve, poor fit]	
CNCCCOc1ccc(Cl)cc1C(C)(C)C	11.2 µM [falling, partial curve, poor fit]	

— PubChem BioAssay AID493014 (National Center for Advancing Translational Sciences (NCATS), 2011)
